Laboratory results as given in article PMC11481185.
These are yes or no findings as the source states them, for the method shown. Binding seen in cells or lysates may run through a third protein. Binding calls can cover weak binding; strength is not graded here. Where a sequence is shown, tags or fusion partners need not be part of it.

Molecular target: T1, FLAG-tagged CD93 (UniProt O89103)
T1 sequence: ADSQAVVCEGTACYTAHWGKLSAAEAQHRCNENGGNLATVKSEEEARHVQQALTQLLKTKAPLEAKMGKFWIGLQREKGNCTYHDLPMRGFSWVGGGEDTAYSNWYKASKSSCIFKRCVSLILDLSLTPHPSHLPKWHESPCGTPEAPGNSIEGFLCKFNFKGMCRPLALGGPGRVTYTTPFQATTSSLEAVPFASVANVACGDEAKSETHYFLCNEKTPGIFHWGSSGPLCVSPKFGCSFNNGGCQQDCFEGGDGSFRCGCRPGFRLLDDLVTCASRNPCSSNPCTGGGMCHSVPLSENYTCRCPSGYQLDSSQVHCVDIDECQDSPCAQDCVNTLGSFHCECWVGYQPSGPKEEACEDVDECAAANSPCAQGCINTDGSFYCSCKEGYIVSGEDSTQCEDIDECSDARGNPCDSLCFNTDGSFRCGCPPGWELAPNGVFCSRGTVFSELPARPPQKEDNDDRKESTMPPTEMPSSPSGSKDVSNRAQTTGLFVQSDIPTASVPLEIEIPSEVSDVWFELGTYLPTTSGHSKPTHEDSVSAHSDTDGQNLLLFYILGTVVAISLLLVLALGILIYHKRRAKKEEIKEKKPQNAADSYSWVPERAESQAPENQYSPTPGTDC
Assay: co-IP; transfected cells lysed in CO-IP lysis buffer with protease inhibitor cocktail and PMSF; supernatant incubated with anti-HA-tag or anti-Flag-tag magnetic beads at 4 °C overnight; washed three times; bound proteins analysed by western blot

HA-tagged IL17D (ligand)
binding: binds
